In the supplement of paper PMC12823440, “Inhibitors supercharge kinase turnover through native proteolytic circuits” (Nature, 2025):
Structures can show the parent of a compound that is named as a salt. Some of the results follow. The calls rarely recur for the same compound in another form.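 In K562 cells expressing nanoluciferase-fused kinases, luminescence was recorded at 4 h intervals between 2 and 18 h, normalized as percent of control with DMSO at 100% and a positive control at 0%. A significant (2 sigma) signal drop marks a time point as decreased. The authors' rule for a hit is not shown and takes in more than the number of time points.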

Protein sequences, listed by entry. Tags and fused reporters are not part of them. Lines headed by an entry give the natural chain unless they say otherwise; changes in a name come on top.
UniProt Q06187: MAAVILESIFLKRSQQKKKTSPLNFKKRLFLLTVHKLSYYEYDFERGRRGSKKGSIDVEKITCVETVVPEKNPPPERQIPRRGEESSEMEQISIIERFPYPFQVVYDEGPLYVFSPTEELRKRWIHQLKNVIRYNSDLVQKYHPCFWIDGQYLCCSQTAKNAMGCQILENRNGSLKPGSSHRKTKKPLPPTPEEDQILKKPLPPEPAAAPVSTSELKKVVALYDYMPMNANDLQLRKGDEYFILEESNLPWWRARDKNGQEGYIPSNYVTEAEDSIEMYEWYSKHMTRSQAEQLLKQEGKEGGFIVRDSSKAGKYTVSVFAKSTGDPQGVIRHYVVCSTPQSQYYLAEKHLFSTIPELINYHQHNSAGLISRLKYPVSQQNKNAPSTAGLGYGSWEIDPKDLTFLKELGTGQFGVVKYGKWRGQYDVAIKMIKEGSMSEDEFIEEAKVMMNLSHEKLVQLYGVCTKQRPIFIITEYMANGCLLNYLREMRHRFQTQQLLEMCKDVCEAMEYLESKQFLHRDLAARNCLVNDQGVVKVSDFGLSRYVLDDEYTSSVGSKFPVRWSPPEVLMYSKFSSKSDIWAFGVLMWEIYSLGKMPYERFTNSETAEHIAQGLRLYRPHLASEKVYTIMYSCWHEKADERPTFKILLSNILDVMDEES
UniProt Q9UQM7, whole entry: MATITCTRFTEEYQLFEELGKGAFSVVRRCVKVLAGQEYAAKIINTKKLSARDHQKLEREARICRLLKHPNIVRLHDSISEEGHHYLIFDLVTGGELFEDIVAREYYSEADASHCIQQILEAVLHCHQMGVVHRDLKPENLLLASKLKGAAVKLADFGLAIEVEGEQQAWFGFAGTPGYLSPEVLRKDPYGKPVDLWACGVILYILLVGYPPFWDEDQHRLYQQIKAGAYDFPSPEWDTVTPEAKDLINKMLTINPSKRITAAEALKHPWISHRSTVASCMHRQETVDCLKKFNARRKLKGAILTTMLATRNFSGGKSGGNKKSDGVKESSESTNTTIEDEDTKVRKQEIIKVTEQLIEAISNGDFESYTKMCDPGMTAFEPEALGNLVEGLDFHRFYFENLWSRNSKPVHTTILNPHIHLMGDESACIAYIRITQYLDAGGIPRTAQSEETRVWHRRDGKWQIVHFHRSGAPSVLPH
UniProt Q15131: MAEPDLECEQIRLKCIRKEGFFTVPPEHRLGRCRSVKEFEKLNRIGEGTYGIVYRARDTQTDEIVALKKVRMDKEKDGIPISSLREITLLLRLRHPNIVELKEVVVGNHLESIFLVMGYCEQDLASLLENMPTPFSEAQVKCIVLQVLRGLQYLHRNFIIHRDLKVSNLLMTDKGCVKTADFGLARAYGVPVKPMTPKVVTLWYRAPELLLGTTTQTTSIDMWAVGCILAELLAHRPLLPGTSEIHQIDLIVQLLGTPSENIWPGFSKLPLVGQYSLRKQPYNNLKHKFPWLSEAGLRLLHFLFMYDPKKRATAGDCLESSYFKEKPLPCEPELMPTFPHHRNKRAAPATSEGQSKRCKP
UniProt P11802: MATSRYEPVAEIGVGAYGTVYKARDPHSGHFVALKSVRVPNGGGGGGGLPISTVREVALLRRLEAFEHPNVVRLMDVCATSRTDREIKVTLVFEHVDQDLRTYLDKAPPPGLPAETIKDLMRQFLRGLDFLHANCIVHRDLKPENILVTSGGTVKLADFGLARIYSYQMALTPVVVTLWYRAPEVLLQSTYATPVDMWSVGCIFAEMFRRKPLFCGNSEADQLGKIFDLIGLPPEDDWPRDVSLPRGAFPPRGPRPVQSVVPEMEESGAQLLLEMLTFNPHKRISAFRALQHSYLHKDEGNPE
UniProt Q00535, whole entry, looked up: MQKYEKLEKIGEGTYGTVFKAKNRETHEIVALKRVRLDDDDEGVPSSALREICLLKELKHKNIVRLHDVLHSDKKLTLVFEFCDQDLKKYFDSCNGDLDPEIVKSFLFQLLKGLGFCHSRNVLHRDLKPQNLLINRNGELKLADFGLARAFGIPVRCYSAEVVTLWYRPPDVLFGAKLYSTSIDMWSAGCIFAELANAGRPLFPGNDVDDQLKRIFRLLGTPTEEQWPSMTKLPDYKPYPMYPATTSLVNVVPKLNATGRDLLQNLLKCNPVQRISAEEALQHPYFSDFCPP
UniProt Q00534, whole entry: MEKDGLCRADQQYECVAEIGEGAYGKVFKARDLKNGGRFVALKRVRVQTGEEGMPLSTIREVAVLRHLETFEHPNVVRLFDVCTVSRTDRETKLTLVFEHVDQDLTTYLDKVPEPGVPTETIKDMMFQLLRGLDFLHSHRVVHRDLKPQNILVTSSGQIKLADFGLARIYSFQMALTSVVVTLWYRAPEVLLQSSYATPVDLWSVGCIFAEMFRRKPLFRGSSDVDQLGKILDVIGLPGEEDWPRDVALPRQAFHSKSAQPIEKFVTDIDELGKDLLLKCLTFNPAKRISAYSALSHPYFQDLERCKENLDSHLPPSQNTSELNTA
UniProt O96017, whole entry: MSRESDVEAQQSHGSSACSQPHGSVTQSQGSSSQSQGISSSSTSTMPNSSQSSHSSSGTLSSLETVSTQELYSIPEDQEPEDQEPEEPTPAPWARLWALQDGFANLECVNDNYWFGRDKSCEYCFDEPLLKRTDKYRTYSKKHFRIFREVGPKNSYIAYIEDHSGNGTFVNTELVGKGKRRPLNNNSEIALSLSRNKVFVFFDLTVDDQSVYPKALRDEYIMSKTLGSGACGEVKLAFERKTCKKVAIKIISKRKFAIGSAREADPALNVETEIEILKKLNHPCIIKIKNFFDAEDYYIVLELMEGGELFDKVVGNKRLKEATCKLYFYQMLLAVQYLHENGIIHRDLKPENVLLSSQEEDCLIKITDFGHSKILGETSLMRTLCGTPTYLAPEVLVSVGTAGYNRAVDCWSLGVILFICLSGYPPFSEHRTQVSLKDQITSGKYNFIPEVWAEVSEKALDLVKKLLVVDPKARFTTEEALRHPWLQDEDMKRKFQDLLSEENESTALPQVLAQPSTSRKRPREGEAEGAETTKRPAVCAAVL
UniProt P07333, whole entry: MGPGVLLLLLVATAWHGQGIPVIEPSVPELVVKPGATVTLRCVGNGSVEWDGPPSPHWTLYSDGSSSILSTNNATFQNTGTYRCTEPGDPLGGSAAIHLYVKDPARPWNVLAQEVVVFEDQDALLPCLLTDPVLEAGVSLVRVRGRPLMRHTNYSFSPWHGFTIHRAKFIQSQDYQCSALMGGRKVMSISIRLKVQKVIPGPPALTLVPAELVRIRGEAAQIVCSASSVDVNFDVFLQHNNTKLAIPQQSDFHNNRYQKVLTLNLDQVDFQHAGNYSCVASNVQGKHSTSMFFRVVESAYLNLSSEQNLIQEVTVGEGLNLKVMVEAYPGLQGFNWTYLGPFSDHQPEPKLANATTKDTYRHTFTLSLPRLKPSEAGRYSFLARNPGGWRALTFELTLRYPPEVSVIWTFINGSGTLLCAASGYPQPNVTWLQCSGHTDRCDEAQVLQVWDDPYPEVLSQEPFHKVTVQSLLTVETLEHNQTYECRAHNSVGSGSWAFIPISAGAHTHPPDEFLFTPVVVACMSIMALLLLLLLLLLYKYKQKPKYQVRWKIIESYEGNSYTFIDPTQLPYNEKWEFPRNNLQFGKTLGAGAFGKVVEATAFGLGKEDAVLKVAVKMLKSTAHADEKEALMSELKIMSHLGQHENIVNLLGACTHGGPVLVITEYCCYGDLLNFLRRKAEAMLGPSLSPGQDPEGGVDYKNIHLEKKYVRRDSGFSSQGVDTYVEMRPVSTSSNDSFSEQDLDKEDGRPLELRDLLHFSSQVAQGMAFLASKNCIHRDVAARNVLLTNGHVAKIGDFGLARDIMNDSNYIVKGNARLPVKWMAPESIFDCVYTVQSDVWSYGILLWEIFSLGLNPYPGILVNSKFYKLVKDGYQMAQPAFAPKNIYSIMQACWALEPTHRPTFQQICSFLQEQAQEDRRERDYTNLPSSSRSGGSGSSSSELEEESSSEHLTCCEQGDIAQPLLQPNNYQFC
UniProt P41240: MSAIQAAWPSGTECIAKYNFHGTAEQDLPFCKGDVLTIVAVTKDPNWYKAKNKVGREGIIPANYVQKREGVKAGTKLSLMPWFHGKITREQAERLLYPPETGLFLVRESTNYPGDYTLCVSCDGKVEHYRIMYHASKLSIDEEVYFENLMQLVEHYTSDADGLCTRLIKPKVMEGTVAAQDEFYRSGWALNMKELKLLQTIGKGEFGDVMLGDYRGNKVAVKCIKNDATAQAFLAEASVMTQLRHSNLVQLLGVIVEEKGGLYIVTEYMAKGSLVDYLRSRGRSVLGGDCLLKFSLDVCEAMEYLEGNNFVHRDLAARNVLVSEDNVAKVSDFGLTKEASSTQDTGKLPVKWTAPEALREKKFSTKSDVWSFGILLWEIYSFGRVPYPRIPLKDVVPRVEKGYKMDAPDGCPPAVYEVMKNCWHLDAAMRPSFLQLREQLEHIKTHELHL
UniProt P48730: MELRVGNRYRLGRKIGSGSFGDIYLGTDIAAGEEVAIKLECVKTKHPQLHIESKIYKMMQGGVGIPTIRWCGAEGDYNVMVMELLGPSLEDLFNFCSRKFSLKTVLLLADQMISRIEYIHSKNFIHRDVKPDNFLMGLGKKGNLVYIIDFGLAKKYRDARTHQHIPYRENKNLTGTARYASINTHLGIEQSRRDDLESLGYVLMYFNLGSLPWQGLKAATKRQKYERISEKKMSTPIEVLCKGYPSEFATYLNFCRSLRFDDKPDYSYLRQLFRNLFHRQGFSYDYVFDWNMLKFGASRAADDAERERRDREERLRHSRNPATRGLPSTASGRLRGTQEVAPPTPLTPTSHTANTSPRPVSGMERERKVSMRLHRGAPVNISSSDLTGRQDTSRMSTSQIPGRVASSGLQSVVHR
UniProt Q08345: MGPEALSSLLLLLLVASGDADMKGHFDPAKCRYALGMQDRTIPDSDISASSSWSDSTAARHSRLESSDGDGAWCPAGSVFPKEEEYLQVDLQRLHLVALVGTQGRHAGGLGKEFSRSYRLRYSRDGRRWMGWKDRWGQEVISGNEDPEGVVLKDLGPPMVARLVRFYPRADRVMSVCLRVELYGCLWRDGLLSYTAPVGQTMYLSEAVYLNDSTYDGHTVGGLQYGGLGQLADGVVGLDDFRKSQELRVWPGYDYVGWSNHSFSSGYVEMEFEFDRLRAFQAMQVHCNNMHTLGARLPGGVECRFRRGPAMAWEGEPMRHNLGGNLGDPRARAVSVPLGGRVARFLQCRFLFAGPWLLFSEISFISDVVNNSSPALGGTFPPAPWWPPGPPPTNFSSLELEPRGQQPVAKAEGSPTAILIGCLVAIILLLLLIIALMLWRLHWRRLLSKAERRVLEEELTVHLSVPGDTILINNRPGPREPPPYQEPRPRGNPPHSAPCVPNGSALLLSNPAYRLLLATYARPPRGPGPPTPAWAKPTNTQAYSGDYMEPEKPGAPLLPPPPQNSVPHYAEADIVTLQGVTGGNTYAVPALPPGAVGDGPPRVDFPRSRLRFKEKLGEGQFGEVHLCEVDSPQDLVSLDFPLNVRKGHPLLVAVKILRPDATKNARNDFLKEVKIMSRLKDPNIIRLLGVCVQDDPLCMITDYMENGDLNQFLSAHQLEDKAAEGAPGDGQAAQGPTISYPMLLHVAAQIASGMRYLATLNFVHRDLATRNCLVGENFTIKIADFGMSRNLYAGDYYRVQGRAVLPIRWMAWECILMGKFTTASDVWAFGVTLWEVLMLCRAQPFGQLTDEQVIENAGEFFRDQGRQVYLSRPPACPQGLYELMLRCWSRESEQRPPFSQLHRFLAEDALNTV
UniProt Q9Y463, whole entry, looked up: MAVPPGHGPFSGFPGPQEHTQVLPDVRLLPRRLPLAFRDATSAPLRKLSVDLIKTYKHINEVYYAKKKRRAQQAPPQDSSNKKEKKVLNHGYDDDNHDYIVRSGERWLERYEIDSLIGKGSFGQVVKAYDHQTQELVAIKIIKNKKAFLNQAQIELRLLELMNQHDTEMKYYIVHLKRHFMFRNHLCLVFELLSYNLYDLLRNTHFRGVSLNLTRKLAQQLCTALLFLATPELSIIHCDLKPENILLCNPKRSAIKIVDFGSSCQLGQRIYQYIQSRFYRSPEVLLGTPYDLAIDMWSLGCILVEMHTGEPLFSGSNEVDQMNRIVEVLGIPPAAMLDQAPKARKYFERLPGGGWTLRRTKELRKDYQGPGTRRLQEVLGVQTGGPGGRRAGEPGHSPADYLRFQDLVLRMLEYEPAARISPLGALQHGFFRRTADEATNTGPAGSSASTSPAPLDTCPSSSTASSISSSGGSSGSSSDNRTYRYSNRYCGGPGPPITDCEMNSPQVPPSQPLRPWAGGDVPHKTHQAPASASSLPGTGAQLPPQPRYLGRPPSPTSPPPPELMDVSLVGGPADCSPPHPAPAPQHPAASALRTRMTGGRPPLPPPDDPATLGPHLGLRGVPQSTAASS

How the values were obtained:
Assay in all cases: kinase-Nluc reporter destabilization hit call (1 = scored as downregulated) (binary); higher = compound decreases kinase abundance
Settings in all cases: K562; 2-18 h
BRAF_V600E = tested on: BRAF_V600E
BTK = BTK (UniProt Q06187)
CAMK2A = CAMK2A (UniProt Q9UQM7)
CAMK2G = CAMK2G (UniProt Q13555)
CDK10 = CDK10 (UniProt Q15131)
CDK2 = CDK2 (UniProt P24941)
CDK3 = CDK3 (UniProt Q00526)
CDK4 = CDK4 (UniProt P11802)
CDK5 = CDK5 (UniProt Q00535)
CDK6 = CDK6 (UniProt Q00534)
CDK7 = CDK7 (UniProt P50613)
CDK9 = CDK9 (UniProt P50750)
CHEK2 = CHEK2 (UniProt O96017)
CSF1R = CSF1R (UniProt P07333)
CSK = CSK (UniProt P41240)
CSNK1A1 = CSNK1A1 (UniProt P48729)
CSNK1D = CSNK1D (UniProt P48730)
DDR1 = DDR1 (UniProt Q08345)
DYRK1B = DYRK1B (UniProt Q9Y463)
DYRK2 = DYRK2 (UniProt Q92630)

Measured: kinase-Nluc reporter destabilization hit call

Cn1cnc([N+](=O)[O-])c1C[N+](C)(C)C/C=C/C(=O)Nc1cc2c(Nc3ccc(Cl)c(Br)c3)ncnc2cn1 [Tarloxotinib (bromide)] (10 µM)
inactive: BRAF_V600E 0 | BTK 0 | CAMK2A 0 | CAMK2G 0 | CDK10 = 0 | CDK2 = 0 | CDK3 = 0 | CDK4 = 0 | CDK5 = 0 | CDK6 = 0 | CDK7 = 0 | CDK9 = 0 | CHEK2 = 0 | CSF1R 0 | CSK 0 | CSNK1A1 = 0 | CSNK1D 0 | DDR1 = 0 | DYRK1B 0 | DYRK2 = 0

Cc1cccc(-c2[nH]c(C(C)(C)C)nc2-c2ccc3nccnc3c2)n1 (10 µM)
inactive: BRAF_V600E 0 | BTK 0 | CAMK2A 0 | CAMK2G 0 | CDK10 = 0 | CDK2 = 0 | CDK3 = 0 | CDK4 = 0 | CDK5 = 0 | CDK6 = 0 | CDK7 = 0 | CDK9 = 0 | CHEK2 = 0 | CSF1R 0 | CSK 0 | CSNK1A1 = 0 | CSNK1D 0 | DDR1 = 0 | DYRK1B 0 | DYRK2 = 0

Cc1cc(Nc2nc(CC3(C(=O)O)CCN(C(=O)c4cccc(Cl)c4Cl)CC3)ccc2F)n[nH]1 (10 µM)
inactive: BRAF_V600E 0 | BTK 0 | CAMK2A 0 | CAMK2G 0 | CDK10 = 0 | CDK2 = 0 | CDK3 = 0 | CDK4 = 0 | CDK5 = 0 | CDK6 = 0 | CDK7 = 0 | CDK9 = 0 | CHEK2 = 0 | CSF1R 0 | CSK 0 | CSNK1A1 = 0 | CSNK1D 0 | DDR1 = 0 | DYRK1B 0 | DYRK2 = 0

CCN(CC)c1cc2oc(=O)c(-c3nc4ccccc4o3)cc2cc1C (2.5 µM)
inactive: BRAF_V600E 0 | BTK 0 | CAMK2A 0 | CAMK2G 0 | CDK10 = 0 | CDK2 = 0 | CDK3 = 0 | CDK4 = 0 | CDK5 = 0 | CDK6 = 0 | CDK7 = 0 | CDK9 = 0 | CHEK2 = 0 | CSF1R 0 | CSK 0 | CSNK1A1 = 0 | CSNK1D 0 | DDR1 = 0 | DYRK1B 0 | DYRK2 = 0

COc1c(Nc2cc(C)[nH]n2)nc(Sc2ccc(S(=O)(=O)Cc3cccc([N+](=O)[O-])c3F)cc2F)nc1N1CCCCC1 [Centrinone-B] (2.5 µM)
inactive: BRAF_V600E 0 | BTK 0 | CAMK2A 0 | CAMK2G 0 | CDK10 = 0 | CDK2 = 0 | CDK3 = 0 | CDK4 = 0 | CDK5 = 0 | CDK6 = 0 | CDK7 = 0 | CDK9 = 0 | CHEK2 = 0 | CSF1R 0 | CSK 0 | CSNK1A1 = 0 | CSNK1D 0 | DDR1 = 0 | DYRK1B 0 | DYRK2 = 0

O=c1[nH]c(C2CCCN2)nc2c1oc1ccc(Cl)cc12 (stereo not given) [XL413 (hydrochloride)] (10 µM)
inactive: BRAF_V600E 0 | BTK 0 | CAMK2A 0 | CAMK2G 0 | CDK10 = 0 | CDK2 = 0 | CDK3 = 0 | CDK4 = 0 | CDK5 = 0 | CDK6 = 0 | CDK7 = 0 | CDK9 = 0 | CHEK2 = 0 | CSF1R 0 | CSK 0 | CSNK1A1 = 0 | CSNK1D 0 | DDR1 = 0 | DYRK1B 0 | DYRK2 = 0

Cc1cc(Nc2ncnc3ccc(-c4ccc(CNCCS(C)(=O)=O)o4)cc23)ccc1Oc1ccn2ncnc2c1 [ARRY-380 (analog )] (2.5 µM)
inactive: BRAF_V600E 0 | BTK 0 | CAMK2A 0 | CAMK2G 0 | CDK10 = 0 | CDK2 = 0 | CDK3 = 0 | CDK4 = 0 | CDK5 = 0 | CDK6 = 0 | CDK7 = 0 | CDK9 = 0 | CHEK2 = 0 | CSF1R 0 | CSK 0 | CSNK1A1 = 0 | CSNK1D 0 | DDR1 = 0 | DYRK1B 0 | DYRK2 = 0

Oc1ccc(/C=C/c2cc(O)cc(F)c2)cc1 [Resveratrol analog 1] (10 µM)
inactive: BRAF_V600E 0 | BTK 0 | CAMK2A 0 | CAMK2G 0 | CDK10 = 0 | CDK2 = 0 | CDK3 = 0 | CDK4 = 0 | CDK5 = 0 | CDK6 = 0 | CDK7 = 0 | CDK9 = 0 | CHEK2 = 0 | CSF1R 0 | CSK 0 | CSNK1A1 = 0 | CSNK1D 0 | DDR1 = 0 | DYRK1B 0 | DYRK2 = 0

CC(C)c1cccc(C(C)C)c1N1C(=O)c2ccc(N)cc2C1=O (2.5 µM)
inactive: BRAF_V600E 0 | BTK 0 | CAMK2A 0 | CAMK2G 0 | CDK10 = 0 | CDK2 = 0 | CDK3 = 0 | CDK4 = 0 | CDK5 = 0 | CDK6 = 0 | CDK7 = 0 | CDK9 = 0 | CHEK2 = 0 | CSF1R 0 | CSK 0 | CSNK1A1 = 0 | CSNK1D 0 | DDR1 = 0 | DYRK1B 0 | DYRK2 = 0

COc1cc(N(C)CCN(C)C)c(N)cc1Nc1nccc(-c2cn(C)c3ccccc23)n1 [Mutated EGFR-IN-1] (10 µM)
inactive: BRAF_V600E 0 | BTK 0 | CAMK2A 0 | CAMK2G 0 | CDK10 = 0 | CDK2 = 0 | CDK3 = 0 | CDK4 = 0 | CDK5 = 0 | CDK6 = 0 | CDK7 = 0 | CDK9 = 0 | CHEK2 = 0 | CSF1R 0 | CSK 0 | CSNK1A1 = 0 | CSNK1D 0 | DDR1 = 0 | DYRK1B 0 | DYRK2 = 0

CC[C@@](C)(Nc1ccnc(-c2c[nH]c3ncccc23)n1)C(=O)NCC(F)(F)F [Decernotinib] (10 µM)
inactive: BRAF_V600E 0 | BTK 0 | CAMK2A 0 | CAMK2G 0 | CDK10 = 0 | CDK2 = 0 | CDK3 = 0 | CDK4 = 0 | CDK5 = 0 | CDK6 = 0 | CDK7 = 0 | CDK9 = 0 | CHEK2 = 0 | CSF1R 0 | CSK 0 | CSNK1A1 = 0 | CSNK1D 0 | DDR1 = 0 | DYRK1B 0 | DYRK2 = 0

Two successive compounds out of the list so far, for reference:
O=c1[nH]c(C2CCCN2)nc2c1oc1ccc(Cl)cc12 (stereo not given) [XL413 (hydrochloride)] (10 µM)
inactive: BRAF_V600E 0 | BTK 0 | CAMK2A 0 | CAMK2G 0 | CDK10 = 0 | CDK2 = 0 | CDK3 = 0 | CDK4 = 0 | CDK5 = 0 | CDK6 = 0 | CDK7 = 0 | CDK9 = 0 | CHEK2 = 0 | CSF1R 0 | CSK 0 | CSNK1A1 = 0 | CSNK1D 0 | DDR1 = 0 | DYRK1B 0 | DYRK2 = 0

Cc1cc(Nc2ncnc3ccc(-c4ccc(CNCCS(C)(=O)=O)o4)cc23)ccc1Oc1ccn2ncnc2c1 [ARRY-380 (analog )] (2.5 µM)
inactive: BRAF_V600E 0 | BTK 0 | CAMK2A 0 | CAMK2G 0 | CDK10 = 0 | CDK2 = 0 | CDK3 = 0 | CDK4 = 0 | CDK5 = 0 | CDK6 = 0 | CDK7 = 0 | CDK9 = 0 | CHEK2 = 0 | CSF1R 0 | CSK 0 | CSNK1A1 = 0 | CSNK1D 0 | DDR1 = 0 | DYRK1B 0 | DYRK2 = 0

Remaining list, next part

O=c1cc(N2CCOCC2)nc2c3ccccc3ccn12 [Compound 401] (10 µM)
inactive: BRAF_V600E 0 | BTK 0 | CAMK2A 0 | CAMK2G 0 | CDK10 = 0 | CDK2 = 0 | CDK3 = 0 | CDK4 = 0 | CDK5 = 0 | CDK6 = 0 | CDK7 = 0 | CDK9 = 0 | CHEK2 = 0 | CSF1R 0 | CSK 0 | CSNK1A1 = 0 | CSNK1D 0 | DDR1 = 0 | DYRK1B 0 | DYRK2 = 0

CCc1cccc(CC)c1NC(=O)N1Cc2[nH]nc(NC(=O)c3ccc(N4CCN(C)CC4)cc3)c2C1 (2.5 µM)
inactive: BRAF_V600E 0 | BTK 0 | CAMK2A 0 | CAMK2G 0 | CDK10 = 0 | CDK2 = 0 | CDK3 = 0 | CDK4 = 0 | CDK5 = 0 | CDK6 = 0 | CDK7 = 0 | CDK9 = 0 | CHEK2 = 0 | CSF1R 0 | CSK 0 | CSNK1A1 = 0 | CSNK1D 0 | DDR1 = 0 | DYRK1B 0 | DYRK2 = 0
